The experiment concerns the target Flag-tagged SAMHD1 (human) (UniProt Q9Y3Z3). In words: affinity purification with mass spectrometry; Flag-SAMHD1 overexpressed in HEK293 cells for 48 h, IP lysis, Flag beads overnight at 4 °C, washed with PBS, gel bands digested for mass spectrometry.

The chains behind the UniProt entries cited, without tags or fusion partners.
UniProt Q9Y3Z3: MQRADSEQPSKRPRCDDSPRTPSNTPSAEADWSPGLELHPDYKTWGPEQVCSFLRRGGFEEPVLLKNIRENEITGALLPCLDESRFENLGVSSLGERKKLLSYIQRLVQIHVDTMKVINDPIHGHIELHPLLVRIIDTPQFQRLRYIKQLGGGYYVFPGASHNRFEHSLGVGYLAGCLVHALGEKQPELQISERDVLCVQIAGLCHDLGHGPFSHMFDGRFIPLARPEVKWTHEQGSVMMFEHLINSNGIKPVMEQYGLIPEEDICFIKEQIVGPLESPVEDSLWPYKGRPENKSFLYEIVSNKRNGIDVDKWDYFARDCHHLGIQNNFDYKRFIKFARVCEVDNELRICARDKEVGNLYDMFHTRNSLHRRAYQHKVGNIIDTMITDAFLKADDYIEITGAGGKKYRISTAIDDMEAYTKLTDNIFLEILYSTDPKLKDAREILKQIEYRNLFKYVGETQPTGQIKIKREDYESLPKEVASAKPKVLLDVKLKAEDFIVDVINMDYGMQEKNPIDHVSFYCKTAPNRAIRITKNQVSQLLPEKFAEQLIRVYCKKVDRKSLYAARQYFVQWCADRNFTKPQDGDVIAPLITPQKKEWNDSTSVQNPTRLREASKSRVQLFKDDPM
UniProt Q93009: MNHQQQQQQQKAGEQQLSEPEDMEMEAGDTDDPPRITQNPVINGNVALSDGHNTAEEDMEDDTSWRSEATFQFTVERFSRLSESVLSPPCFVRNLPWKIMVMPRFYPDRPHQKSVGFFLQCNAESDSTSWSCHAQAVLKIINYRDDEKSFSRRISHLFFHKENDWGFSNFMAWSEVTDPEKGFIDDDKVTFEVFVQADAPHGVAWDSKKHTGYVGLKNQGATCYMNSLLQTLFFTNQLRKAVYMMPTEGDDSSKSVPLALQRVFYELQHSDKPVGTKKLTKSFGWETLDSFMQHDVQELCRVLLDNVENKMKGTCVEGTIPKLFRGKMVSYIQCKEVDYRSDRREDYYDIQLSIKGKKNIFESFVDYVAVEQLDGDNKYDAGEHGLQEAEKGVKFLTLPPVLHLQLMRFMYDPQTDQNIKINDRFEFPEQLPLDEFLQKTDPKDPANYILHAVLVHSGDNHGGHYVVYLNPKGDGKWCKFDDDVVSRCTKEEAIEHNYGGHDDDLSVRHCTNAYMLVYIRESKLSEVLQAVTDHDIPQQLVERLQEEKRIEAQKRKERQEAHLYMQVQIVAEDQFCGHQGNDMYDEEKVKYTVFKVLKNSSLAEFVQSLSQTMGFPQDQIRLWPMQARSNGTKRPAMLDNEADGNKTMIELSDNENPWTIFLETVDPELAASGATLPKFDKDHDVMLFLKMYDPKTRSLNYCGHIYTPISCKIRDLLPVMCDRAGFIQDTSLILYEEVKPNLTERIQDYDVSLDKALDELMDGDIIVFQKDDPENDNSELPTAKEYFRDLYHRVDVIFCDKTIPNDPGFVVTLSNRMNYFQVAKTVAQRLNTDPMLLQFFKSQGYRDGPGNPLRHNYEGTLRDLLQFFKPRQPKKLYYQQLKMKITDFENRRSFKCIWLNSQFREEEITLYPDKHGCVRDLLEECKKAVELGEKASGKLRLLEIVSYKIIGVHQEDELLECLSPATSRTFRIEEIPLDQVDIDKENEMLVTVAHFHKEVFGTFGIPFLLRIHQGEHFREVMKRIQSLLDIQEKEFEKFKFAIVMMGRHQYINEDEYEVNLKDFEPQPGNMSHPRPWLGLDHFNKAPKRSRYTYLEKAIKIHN

Binding data for one substance are collected here from article PMC10238270.

Results are given in words; binding and its absence hold for the method and conditions named. Binding seen in cells or lysates may run through a third protein. These calls come from enrichment with a bait or labelling near it, and not all partners need be listed.

Take “USP7 (from UniProt Q93009 1-1102) (enzyme)”: the binding result is “binds”.
